Assay results: US20170224819A1, “Therapeutic Combinations of a BTK Inhibitor, a PI3K Inhibitor, a JAK-2 Inhibitor, and/or a CDK 4/6 Inhibitor” (Acerta Pharma B.V., priority 2014, published 2017)

System: chronic lymphocytic leukemia (CLL)
Test: Clinical study of Formula (XVIII) in relapsed/refractory CLL

**Q.** For `CC#CC(=O)N1CCC[C@H]1c1nc(-c2ccc(C(=O)Nc3ccccn3)cc2)c2c(N)nccn12` [Formula (XVIII), (S)-4-(8-amino-3-(1-(but-2-ynoyl)pyrrolidin-2-yl)imidazo[1,5-a]pyrazin-1-yl)-N-(pyridin-2-yl)benzamide], which “Median Cycles” value (100 mg BID (N = 3)) is on record?
**A.** 5.2 cycles

**Q.** What about the “Median Cycles” value (100 mg QD (N = 8)) of the same molecule?
**A.** 10.0 cycles

**Q.** What about the “Median Cycles” value (175 mg QD (N = 8)) of the same molecule?
**A.** 8.6 cycles

**Q.** What about the “Median Cycles” value (250 mg QD (N = 7)) of the same molecule?
**A.** 7.0 cycles

**Q.** And the “Median Cycles” value (400 mg QD (N = 5))?
**A.** 5.0 cycles

**Q.** And the “Median Cycles” value (All Cohorts (N = 31))?
**A.** 7.3 cycles
